# Results as given in US12435032B2, “L-γ-methyleneglutamine compounds and methods of use” (University of Mississippi, priority 2019, dated 2025).
# Legend:
# Format in all cases: cell-based
# [1] = tested on: MCF-7 breast cancer cells; test: Cytotoxicity (cell death, propidium iodide) in MCF-7 cells; settings: Homo sapiens, MCF7; MCF-7, 72 h exposure, dose-response 0.32-320 μM
# [2] = tested on: SK-BR-3 (ER−/PR−/HER2+) breast cancer cells; test: Growth inhibition of SK-BR-3 cells; settings: Homo sapiens, dose-response 0.32-320 μM
# Experimental: (§1) Compound efficacy was then compared to those of tamoxifen and olaparib. […] Olaparib was chosen because it is one of a few FDA-approved chemotherapeutics for triple-negative breast cancer.
# (§2) Cells were incubated for 15 minutes at 37° C.
# [3] = tested on: MCF-10A non-cancerous breast cells; test: Growth inhibition of MCF-10A cells (negative control line); settings: Homo sapiens, dose-response 0.32-320 μM
# Experimental: as §1, §2
structure (smiles),measurement,setting,value
"CC/C(=C(\c1ccccc1)c1ccc(OCCN(C)C)cc1)c1ccccc1 [Tamoxifen, reference compound]",EC50,[1],285 µM
same,IC50,"[2]; SK-BR-3, 24 h exposure",0.9 µM
same,IC50,"[2]; SK-BR-3, 72 h exposure",1.7 µM
same,IC50,[3]; 24 h exposure,> 1000 µM
same,IC50,[3]; 72 h exposure,> 1000 µM
